The list shows a part of the results. Values are raw readings; no control value is given beside them.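 In the initial screen, polymyxin B was used at a concentration that permeabilizes Salmonella's outer membrane but not its inner membrane. Maximum growth was set by DMSO wells with or without polymyxin B. Since plates varied, data were ranked per plate, and compounds giving the lowest OD600 advanced as hits.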
Test system: Salmonella enterica serovar Typhimurium SL1344
Test: bacterial growth OD600 after 18 h with compound and polymyxin B; higher = more bacterial growth (less inhibition)
Details: 50 µM, Mueller-Hinton broth

SMILES	bacterial growth OD600 (polymyxin B 0.75 µg/mL)	bacterial growth OD600 (polymyxin B 1 µg/mL)
CCC(=O)N[C@@H]1c2ccccc2C2(CCN(C(=O)c3ccc(C#CC(C)(C)O)cc3)CC2)[C@H]1OC	0.712	
Cc1oc(-c2ccc(C(F)(F)F)cc2)nc1CN1CCN(C(=O)c2ccco2)CC1		0.734
COc1cccc(C(C)N(C)C(=O)c2cn(Cc3ccc(Cl)cc3)nn2)c1 (centres undefined)		0.6
CSCCC(=O)N1CCC(C2CCN(CCc3ccccc3)CC2)C1 (centres undefined)		0.941
COc1ccc(OC2CCN(C3CCCC3)CC2)c(C(=O)NC2CCOC(C)(C)C2)c1 (centres undefined)		1.2
O=C(c1ccccc1)C1CCN(C(=O)C2CCC(=O)N(CCCc3ccccc3)C2)CC1 (centres undefined)		1.08
Cc1ncc2c(c1CNC(=O)c1ccsc1)CCN(C(=O)/C=C/c1ccc(Cl)cc1)C2	0.951	
CC(C)CCNC(=O)c1cn(C2CCCC2)cc(C(=O)N2CCN(c3ccccc3O)CC2)c1=O	0.876	
Cc1cc(C)cc(C(=O)N2CCC(CCC(=O)NC3CC3)CC2)c1		1.1
O=C(c1ccccn1)N1CCCC(CCc2ccc(F)cc2F)C1 (centres undefined)	0.906	
O=C(NC1CCCC1)c1ccc(N2CCC(NCCc3ccccc3Cl)CC2)cc1	0.727	
CCOC(=O)C1(Cc2ccc(F)cc2)CCCN(C(C)=O)C1 (centres undefined)		0.919
CO[C@H]1[C@H](NC(=O)COc2ccccc2)c2ccccc2C12CCN(C(=O)c1cccc(C)c1C)CC2	0.743	
O=C(CCOc1ccccc1)Nc1cnn(CC(=O)N2CCCC(COc3ccccc3F)C2)c1 (centres undefined)	0.679	
O[C@@H]1CN(C/C=C/c2ccc(F)cc2)CC[C@H]1N1CCN(c2ccccn2)CC1		0.948
CC#CCN1C(=O)NC(CCCc2ccccc2)(C2CCN(Cc3sccc3C)CC2)C1=O (centres undefined)	0.016	
CCN1CCN(C(=O)CCC2CCN(C(=O)CCCC(=O)OC)CC2)CC1		0.786
COc1ccc(C(=O)N2CCCC(CCC(=O)NCc3ccccc3Cl)C2)cc1OC (centres undefined)		0.907
COCCCNc1ncnc2sc(C(=O)N3CCN(C/C=C/c4ccccc4)CC3)c(C)c12	0.823	
O=C1CC(CC(=O)N2CCCCC2c2cccnc2)(c2ccccc2)C(=O)N1Cc1cccs1 (centres undefined)	0.623	
O=CN1CCCN(C(=O)CC2(c3ccccc3)CC(=O)N(Cc3ccc4c(c3)OCO4)C2=O)CC1 (centres undefined)	0.993	
CC(C)NC(=O)C1CCN(C2CCN(C(=O)c3ccc(F)c(Cl)c3)CC2)CC1		1
COc1ccc(C(=O)NCC2Cc3cc(-c4nc(C)cnc4C)ccc3O2)c(OC)c1 (centres undefined)	0.859	
CC(=O)c1cc(CN2CCC(C(=O)Nc3cccc(-c4cscn4)c3)CC2)cs1		0.709
COCCC(=O)NCc1ccc2[nH]c(C)c(C)c2c1	0.861	
Cc1nc(C)c(C(=O)N2CCC3(CC2)CC3C(=O)NCCC(c2ccccc2)c2ccccc2)s1 (centres undefined)	0.794	
Cc1nc(C(=O)N2CCC(C3(c4ccccn4)NC(=O)N(CCc4cccs4)C3=O)CC2)cs1 (centres undefined)	0.891	
Nc1cc(C(=O)N2CCC3(CCCN(Cc4ccc(F)c(F)c4)C3)C2)ccn1 (centres undefined)	0.651	
Cn1nccc1C(=O)N1CCCCC1C(=O)Nc1ccc(Oc2ccccc2F)cc1 (centres undefined)		0.891

Retrieved one by one from the list above, 2 records:
SMILES	bacterial growth OD600 (polymyxin B 0.75 µg/mL)	bacterial growth OD600 (polymyxin B 1 µg/mL)
CC#CCN1C(=O)NC(CCCc2ccccc2)(C2CCN(Cc3sccc3C)CC2)C1=O (centres undefined)	0.016	
CC(C)NC(=O)C1CCN(C2CCN(C(=O)c3ccc(F)c(Cl)c3)CC2)CC1		1

Reference: the supplement of paper PMC12889115
